This is one part of the list.

The experiment concerns the target T1, OsSMF1 (Oryza sativa, UniProt Q6ZLB0 1-436).
T1 sequence: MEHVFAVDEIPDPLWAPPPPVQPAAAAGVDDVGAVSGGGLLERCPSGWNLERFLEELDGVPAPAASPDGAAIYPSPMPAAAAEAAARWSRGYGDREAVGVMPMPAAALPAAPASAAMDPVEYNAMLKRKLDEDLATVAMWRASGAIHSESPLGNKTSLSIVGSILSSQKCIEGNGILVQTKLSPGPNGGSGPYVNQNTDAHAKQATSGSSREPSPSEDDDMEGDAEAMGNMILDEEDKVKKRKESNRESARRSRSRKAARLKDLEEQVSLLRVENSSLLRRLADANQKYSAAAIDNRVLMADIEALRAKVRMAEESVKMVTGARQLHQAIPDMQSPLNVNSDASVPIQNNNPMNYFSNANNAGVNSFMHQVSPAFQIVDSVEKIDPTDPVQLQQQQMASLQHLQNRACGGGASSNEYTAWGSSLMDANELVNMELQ
Kind of experiment: protein-binding microarray (RPBM); PBS, 2% BSA, 51.3 ng/ul salmon testes DNA, 50 uM zinc acetate, 200 nM TF, 25 C, 1 h; high values mean tight binding. The conditions noted are these: protein: recombinant; tags: N-terminal polyhistidine and DsRed monomer fusion (pET32a); chain copies: 2; label: CyDye5-dUTP incorporated in the synthesized complementary strand; 3' TTTTT single-stranded linker to array surface; dsDNA, one strand shown. In outline: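 The binding signal is fluorescence intensity per array feature (arbitrary units). Readings came from an Axon 4000B scanner after a washed, 2% BSA-blocked, double-stranded custom Agilent array had been incubated for 1 h at 25 °C with 200 nM protein and 50 µM zinc acetate. The protein was a Ni–NTA-purified transcription factor fused N-terminally to polyhistidine and DsRed, expressed in E. coli BL21-CodonPlus.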
For “ATATGGGTGCTAGCCACGCAATTGCGCGGGCCACCCAGTTCGGAGTCACCTAGTGCAG”, the binding signal was 4130 fluorescence intensity (a.u.).

In the case of “ATGAAGCGGGAGCGACAGGAGATGATGGATTTCATCGACGCGGAGTCACCTAGTGCAG”, the binding signal was 3840 fluorescence intensity (a.u.).

Take “ACACGATGGCTATCACACAACACGTGAGCTCATGCGTTTACGGAGTCACCTAGTGCAG”: the binding signal is 3340 fluorescence intensity (a.u.).

On to “TCCTCCCCGTCACCGTCACCGTCACCGTCTCGTCTCCGTCCGGAGTCACCTAGTGCAG”, for which the binding signal was 7090 fluorescence intensity (a.u.).

For the sequence “GTTAATGGTGACTTTATTTTCGTCTGTTACAAAACGGAAGCGGAGTCACCTAGTGCAG”, the binding signal is 3250 fluorescence intensity (a.u.).

In the case of “CAGCAAATTACTCTCCGTAACCTGTTAATATGTTCTCAAGCGGAGTCACCTAGTGCAG”, the binding signal was 28800 fluorescence intensity (a.u.).

As to “ACGGCTACCACCACACATCCTTACTCGCCGACATGTGGGCCGGAGTCACCTAGTGCAG”, the binding signal is 3310 fluorescence intensity (a.u.).

As to “CTCTCTGGGTTGACTTACCGTTTTAGACAAGGGCACGGTCCGGAGTCACCTAGTGCAG”, the binding signal was 20100 fluorescence intensity (a.u.).

As to “GAAAGCAGCGGCGCGGGGTTTTCGAGTGGGTTTGGGGATACGGAGTCACCTAGTGCAG”, the binding signal was 3430 fluorescence intensity (a.u.).

Turning to “TCATCGTCCATGTGGCATGCCATGTAGGCAAGACCACGGTCGGAGTCACCTAGTGCAG”, the binding signal was 10600 fluorescence intensity (a.u.).

With “CACGGCCTCACCTCCCAGCCCGCGAGCACCGGCGGACGGACGGAGTCACCTAGTGCAG”, the binding signal is 42400 fluorescence intensity (a.u.).

“AGTTTTGGAGTCTACATGACGTTTTATGTTTGGCAACGCCCGGAGTCACCTAGTGCAG”: the binding signal was 3340 fluorescence intensity (a.u.).

In the case of “GCTGAGTACACACTGTGTCTATGGGCCACTGACTAGGAGACGGAGTCACCTAGTGCAG”, the binding signal is 3140 fluorescence intensity (a.u.).

Consider “AAAATAAAATTTATTAATAATATTTTATCTATATTTACGACGGAGTCACCTAGTGCAG”, for which the binding signal was 30400 fluorescence intensity (a.u.).

Consider “CTAGCACGCAGTAACAATATAACGACGTGGAATAGCTCCTCGGAGTCACCTAGTGCAG”, for which the binding signal is 3210 fluorescence intensity (a.u.).

“TACACACCATAATTGAAGTATTGAGTCACACATAATTGAACGGAGTCACCTAGTGCAG”: the binding signal was 3220 fluorescence intensity (a.u.).

Consider “CTGTGGTAGGGGAGAATGAGGGCACACATGCGGGTTTAAGCGGAGTCACCTAGTGCAG”, for which the binding signal was 3680 fluorescence intensity (a.u.).

In the case of “AAACACCCACATAATTCCAGATGACACGTGGTATACAAGTCGGAGTCACCTAGTGCAG”, the binding signal was 17400 fluorescence intensity (a.u.).

For “TGCAACGTTGGAGGAGTGCACAGTCATGGAACAACTTGATCGGAGTCACCTAGTGCAG”, the binding signal was 4270 fluorescence intensity (a.u.).

As to “CCCACTGCCACAGCCGCCGCAGCTCCCCGCCGTCATCGTCCGGAGTCACCTAGTGCAG”, the binding signal is 3390 fluorescence intensity (a.u.).

Turning to “AAACTGTACCCTGATGGCGCCATCTGAACGTGTCATGGCTCGGAGTCACCTAGTGCAG”, the binding signal was 4630 fluorescence intensity (a.u.).

Regarding “GAAAACAAGATGAGGAGGAAGTTGCTGACATGTGAGTTCTCGGAGTCACCTAGTGCAG”, the binding signal is 3450 fluorescence intensity (a.u.).

As for “TAACTTCTTGCTGAACCACGTTTGATCCTGTTATCAATTTCGGAGTCACCTAGTGCAG”, the binding signal was 3250 fluorescence intensity (a.u.).

Take “TGTCGTGCATGTAGATCAATCTGCTTGCCGACGTGCATGCCGGAGTCACCTAGTGCAG”: the binding signal was 5620 fluorescence intensity (a.u.).

For the sequence “CGTTATCTCACGACGCCGTCCCGCCACGTCTCGCCGTTTCCGGAGTCACCTAGTGCAG”, the binding signal is 4760 fluorescence intensity (a.u.).

Turning to “GCAATGCGGCGACAAGAGTTGTCTTGCTGACAGGTGGGGCCGGAGTCACCTAGTGCAG”, the binding signal is 4380 fluorescence intensity (a.u.).

As to “CCCAACAATACACCACTGTTCAGTCATCTCATCACCTAGCCGGAGTCACCTAGTGCAG”, the binding signal is 3140 fluorescence intensity (a.u.).

With “ACTCCACTCACACTACTGTCACCAACCTTATCTACAAATTCGGAGTCACCTAGTGCAG”, the binding signal is 3170 fluorescence intensity (a.u.).

On to “GTGAATGTGGAGGCACGGTGGCGAACGTGGCTGCGGTGGACGGAGTCACCTAGTGCAG”, for which the binding signal was 3240 fluorescence intensity (a.u.).

Turning to “CACTTGTCACGAACAGGCGCCGTGCCACCTCGGCGCATGCCGGAGTCACCTAGTGCAG”, the binding signal is 5760 fluorescence intensity (a.u.).

As for “AAAACGTCTAGCAACGACGCGTCGTCCCAGGCCGCTGCCGCGGAGTCACCTAGTGCAG”, the binding signal is 3450 fluorescence intensity (a.u.).

“GCCTCCCCGTCGCCGGCAAGGAGGTCGACGCGAGGAGGATCGGAGTCACCTAGTGCAG”: the binding signal is 11100 fluorescence intensity (a.u.).

Take “GCGGCGCCTCCGGGAAGCGCGGCGCCGCGTCCTCCTCCTCCGGAGTCACCTAGTGCAG”: the binding signal is 3170 fluorescence intensity (a.u.).

As to “CTCTTCCACACAACACGCCACGCCACGCCTCGCCGCGCCGCGGAGTCACCTAGTGCAG”, the binding signal is 7740 fluorescence intensity (a.u.).

As to “GCTGTTGGTTGGTGCCACATCCCACGCTGCCATGCCATGCCGGAGTCACCTAGTGCAG”, the binding signal was 4910 fluorescence intensity (a.u.).

For the sequence “AGTTCAACCGTACAAATACCCGCGCATACAGGTCACCTTCCGGAGTCACCTAGTGCAG”, the binding signal was 4860 fluorescence intensity (a.u.).

As for “GAGGGGACATCCCCGTTGTTTGCATGTCACTTAAATGATTCGGAGTCACCTAGTGCAG”, the binding signal is 3260 fluorescence intensity (a.u.).

For “GATTTATTCATGTAGTACCTTATAGTGACGTAGATAAATCCGGAGTCACCTAGTGCAG”, the binding signal is 4920 fluorescence intensity (a.u.).

As for “ATAAATAAACAAATAATCTTGACTCATCCTAATCCAGAGTCGGAGTCACCTAGTGCAG”, the binding signal was 4260 fluorescence intensity (a.u.).

Regarding “CATCTCGCTCTCCTCCCTCCTCTCTCCTCTCCTCGTCTCCCGGAGTCACCTAGTGCAG”, the binding signal is 3910 fluorescence intensity (a.u.).

Turning to “GAGCTCCCAGCCTCCCACCCGTCTGCCACTGACAGGACGTCGGAGTCACCTAGTGCAG”, the binding signal was 3280 fluorescence intensity (a.u.).

On to “GCATAAATAAAGCGGTGCGTGGATCCTACGTATACCAACCCGGAGTCACCTAGTGCAG”, for which the binding signal is 3570 fluorescence intensity (a.u.).
